Laboratory results: PubChem BioAssay AID743454 (Peter MacCallum Cancer Centre, 2014)

Aim: 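Genes whose loss kills vorinostat-resistant colon cancer cells under vorinostat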 (primary screen)
Cell system: human HCT116-VR colon cancer cells, selected for vorinostat resistance
Reagents: siRNA pool against human genes, 40 nM siRNA pool
Duration: vorinostat for 24 h, read-out about 72 h after transfection
Challenge: vorinostat at 2.5 µM final
Measurement: 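Two measures, CellTiter-Fluor viability and luminescent caspase 3/7 activity, each as fold change against same-plate mock wells, mean of duplicates, then screen-wide robust z-score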
Scale: viability robust z-score: higher = more viable cells than screen typical; caspase robust z-score: higher = more caspase 3/7 activity than screen typical
Active means: 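a knock-down is a hit when classed RV1 or RV2 for lowered viability, or CA1 or CA2 for caspase activation; those lethal without drug were dropped; hits were retested singly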
Here is a random part of about 18,000 deposited reagents. Of all reagents, 450 (2.5%) were called active. 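Single biological run; no consistent viability z cut-off exists, so the class columns, not z-scores, define the calls.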 Entries without a mark were called inactive. No sequences are given here.

gene	PubChem SID	viability hit class	caspase hit class	viability robust z-score	caspase robust z-score
SPATA31A3 (GeneID 727830)	SID135625626	no change	no change	-1.06	-0.02
CKB (GeneID 1152)	SID56479084	no change	no change	-0.08	-0.42
DNAAF4 (GeneID 161582)	SID135622925	no change	no change	-1.3	3.17
OCRL (GeneID 4952)	SID134314677	no change	no change	0.04	1.48
ANG (GeneID 283)	SID152154149	no change	no change	1.22	3.8
LPAR5 (GeneID 57121)	SID134310548	no change	no change	-1.97	-0.32
OR2S2 (GeneID 56656)	SID135624062	no change	no change	-1.04	0.82
KDM6B (GeneID 23135)	SID152149511	no change	no change	-1.39	-0.66
TRIM44 (GeneID 54765)	SID135623314	no change	no change	0.87	0.05
SLC68A1 (GeneID 79847)	SID135624552	no change	no change	0.55	0.64
TMEM70 (GeneID 54968)	SID152150630	no change	no change	1.03	-0.29
EID3 (GeneID 493861)	SID135625376	no change	no change	0.4	-0.41
LRFN3 (GeneID 79414)	SID134318509	no change	no change	-1.06	1.45
ALYREF (GeneID 10189)	SID135622252	no change (active)	CA2 (caspase activation)	-0.82	5.8
COL4A3 (GeneID 1285)	SID152147094	no change	no change	1.06	-0.87
GFI1B (GeneID 8328)	SID152153213	no change	no change	-0.04	0.74
OTOL1 (GeneID 131149)	SID152148728	no change	no change	0.56	-0.5
LENG9 (GeneID 94059)	SID134326896	no change	no change	0.06	2.07
COLGALT1 (GeneID 79709)	SID134322033	no change	no change	0.72	0.02
TTYH3 (GeneID 80727)	SID152154458	no change	no change	-0.15	1.27
RTL5 (GeneID 340526)	SID152151853	no change	no change	0.9	0.21
CDH11 (GeneID 1009)	SID134317717	no change	no change	0.56	-0.68
PPM1D (GeneID 8493)	SID134310517	no change	no change	0.8	0.49

A few values from the entries so far:
For “viability robust z-score”, CKB (GeneID 1152) [SID56479084] is entered as -0.08
Result of ALYREF (GeneID 10189) [SID135622252] in “caspase hit class”: CA2 (caspase activation) (active)
For “viability robust z-score”, PPM1D (GeneID 8493) [SID134310517] shows 0.8
